Primary screen of a compound library

Protein sequences, listed by entry. Tags and fused reporters are not part of them.
UniProt E9BF75, entry or part of it: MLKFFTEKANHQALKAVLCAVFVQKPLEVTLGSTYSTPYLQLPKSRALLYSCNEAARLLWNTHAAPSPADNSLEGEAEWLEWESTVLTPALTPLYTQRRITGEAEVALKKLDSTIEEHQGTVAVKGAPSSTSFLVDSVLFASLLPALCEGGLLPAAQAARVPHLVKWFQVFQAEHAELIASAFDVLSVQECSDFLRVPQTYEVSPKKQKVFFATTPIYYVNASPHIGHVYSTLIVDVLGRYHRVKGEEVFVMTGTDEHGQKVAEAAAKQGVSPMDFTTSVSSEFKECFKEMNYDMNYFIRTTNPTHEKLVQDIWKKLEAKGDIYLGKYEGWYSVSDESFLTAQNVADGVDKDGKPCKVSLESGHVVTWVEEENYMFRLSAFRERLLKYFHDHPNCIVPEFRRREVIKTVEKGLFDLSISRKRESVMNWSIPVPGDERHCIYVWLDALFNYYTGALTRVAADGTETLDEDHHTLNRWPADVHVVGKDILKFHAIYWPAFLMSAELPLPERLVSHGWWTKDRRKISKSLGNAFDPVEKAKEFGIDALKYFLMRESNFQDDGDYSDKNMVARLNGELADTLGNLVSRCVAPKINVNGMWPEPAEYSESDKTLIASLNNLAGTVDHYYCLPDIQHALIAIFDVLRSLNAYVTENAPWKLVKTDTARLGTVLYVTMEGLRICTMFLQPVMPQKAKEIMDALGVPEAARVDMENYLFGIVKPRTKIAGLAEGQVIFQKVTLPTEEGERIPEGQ

The values are deposited in ChEMBL (CHEMBL3988442, “University of Dundee, Small-Polar-MMV Screening Library” (2021)).

All values are in %.
How 0% and 100% were set is not recorded. Most values in the screen are low, and negative values occur.
Compounds were drawn at random from those tested, without regard to their results.

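Methionyl-tRNA synthetase (putative), Leishmania donovani (UniProt E9BF75). Primary screen of methionyl-tRNA synthetase; the read-out is not stated. The test concentration is not given. Values are per cent inhibition. Of about 68,000 compounds tested this way, about 24 (0.035%) reached 50% or more in at least one test.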

structure | inhibition
CCc1c(C)sc2nc3n(CC(N)=O)nc(SC)n3c(=O)c12 | 9.632
Cc1nccn1-c1cncc(C2CCCN2Cc2cccnc2)n1 (configuration not stated) | 7.294
CCC(=O)Nc1cccc(OCC(=O)N(C)Cc2cc(COC)[nH]n2)c1 | 13.87
COCC(=O)N1CCC(c2cc(-c3ccc(C)cc3)n[nH]2)C1 (configuration not stated) | 4.787
O=C(CC1CCCO1)Nc1ccn(Cc2cccc3cccnc23)n1 (configuration not stated) | 12.15
CC(C)Cn1cncc1-c1nc2c([nH]1)CCCNC2=O | 5.415
Cc1nccn1CCN(C)C(=O)C1CCN(C(=O)C2CCC2)CC1 | 2.558
CCN(CC)c1ccc(NS(=O)(=O)c2cncc(F)c2)cn1 | 19.5
COc1cccc(CN2CCCCC2c2n[nH]cc2-c2cc(C)no2)c1 (configuration not stated) | 11.75
COc1cc(N2CCn3cc(CNc4ccccn4)nc3C2)ncn1 | 15.96
CCOc1ccc(NC(=O)NCCCN(C)S(C)(=O)=O)cc1C | 9.218
CCc1nnsc1C(=O)NCc1nnc2n1CCC2 | 9.747
Cn1cc(C(NCCc2ccccn2)c2cccc(F)c2)cn1 (configuration not stated) | 2.094
Cc1ccc(N(C)[C@@H]2CC[C@@H]3CN(C(=O)CC4CCOCC4)C[C@@H]32)nn1 | 20.25
OCCCN(CCn1cncn1)c1ccccc1 | 8.355
O=C(c1ccc[nH]1)N(Cc1ccc(O)cc1)CC1CC1 | 13.61
COCCN1CCN(CCCS(=O)(=O)N(C)C)CC1C (configuration not stated) | 15.08
CC(C)Cc1cc(C(=O)NCCc2nnc(N)s2)n(C)n1 | 8.591
CC(=O)NCCNc1cc(C)nc2cc(C)nn12 | 12.63
O=C(NCCc1ccn(-c2ccccc2)n1)N1CCCC(CO)C1 (configuration not stated) | 20.44
CCC(=O)NC(C)c1ccccc1C (configuration not stated) | 9.524
O=C(Cc1ccc(-n2cnnn2)cc1)Nc1nncs1 | 15.18
CCNS(=O)(=O)C1CCN(C(=O)c2ccc(CC)o2)C1 (configuration not stated) | 6.265
Cc1cc(N(Cc2cccs2)C2CC2)n2nc(C(F)(F)F)nc2n1 | 1.272
CSc1ccc(CCN2CCN([C@H]3CCCC[C@@H]3O)CC2)cc1 | 4.604
Cc1cc2ccccc2n1CC(=O)NC(C)C(=O)N1CCOCC1 (configuration not stated) | -8.009
COc1cc(CCC(=O)N2CCC(c3cc4nccnc4[nH]3)CC2)on1 | 7.812
CCOc1cc2c(cc1CN1CCC3(CC1)CNC(=O)C3)CCC2 | -7.05
CSc1ccc(CN2CCC(CCC(=O)Nc3ccccc3)CC2)cc1 | 1.742
CNC(=O)c1cc2c(nc1NCC1CC1)CCN(c1ccncn1)CC2 | 12.03
c1cnc(N2CCC(c3csc(Nc4cnccn4)n3)CC2)nc1 | 25.47
Cn1cccc1C(=O)NCc1cn2c(n1)CN(CC1CCOC1)CC2 (configuration not stated) | 1.099
Cc1nn(-c2ccccc2)c(C)c1CC(=O)NC1CC(=O)N(C)C1 (configuration not stated) | 15.46
COc1ccc(F)cc1C(=O)N1CC(c2ccncc2)C1 | 11.68
COC[C@@H]1CCC[C@]12CN(S(=O)(=O)c1cccs1)CCO2 | 15.94
Cc1ccc2c(c1)c(CNC(=O)C1CCCN(CC(N)=O)C1)nn2C (configuration not stated) | -0.7371
Cc1ccc(-c2nc(CN3CCn4c(nnc4C4CC4)C3)co2)c(C)c1 | 8.96
C1CC(N2Cc3nnn(CC4CC4)c3C(COCC3CC3)C2)C1 (configuration not stated) | 9.836
N#Cc1cc2c(nc1SCc1cc(O)nc(O)n1)CCCC2 | 15.41
CNS(=O)(=O)CCCN1CCCN(Cc2ccccc2)CC1C (configuration not stated) | 1.42
CCOc1ccc(Cl)cc1NC(=O)N1CCC(n2cncn2)CC1 | 17.01
O=C(CCS(=O)(=O)c1ccccc1)NCCCn1cccn1 | 8.709
O=C(NCC1CCOC1)N1CCN(Cc2ccc3c(c2)CCO3)CC1 (configuration not stated) | 14.17
Cc1noc(C)c1CC(=O)N1CCCC(c2noc(C(C)C)n2)C1 (configuration not stated) | 25.82
O=C(NC1CC(=O)N(C2Cc3ccccc3C2)C1)c1ccoc1 (configuration not stated) | 9.61
CC(C)CCN1CCN(C(=O)c2c[nH]nn2)CC1 | 2.03
Cc1nn(C)c(Cl)c1C1CCCN1C(=O)c1cnn(C)c1C1CC1 (configuration not stated) | 21.65
CNC(=O)c1nc2c(s1)CCN(C(=O)c1ccccc1)CC2 | 14.07